Test results from article PMC4735526.

The chains behind the UniProt entries cited, without tags or fusion partners. Residues count along the entry.
UniProt Q07666, 97-260: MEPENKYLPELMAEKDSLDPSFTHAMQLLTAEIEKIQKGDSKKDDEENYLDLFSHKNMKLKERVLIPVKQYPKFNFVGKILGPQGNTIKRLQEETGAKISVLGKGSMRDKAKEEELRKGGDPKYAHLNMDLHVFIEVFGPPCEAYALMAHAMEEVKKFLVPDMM

Key:
Sam68 QUA1-KH = Sam68 QUA1-KH (UniProt Q07666); assay: fluorescence polarization; conditions: 0.1% beta-mercaptoethanol, protein 0-200 uM, temperature not stated, recombinant protein, protein details: His tag (Ni-NTA) removed by TEV, label: fluorescein; for pKd: 10 mM Tris pH 7, 100 mM NaCl, 0.2 uM fluorescein-labelled RNA
T-STAR QUA1-KH = molecular target: T1, T-STAR QUA1-KH (UniProt O75525); assay: fluorescence polarization; conditions: 0.1% beta-mercaptoethanol, protein 0-200 uM, temperature not stated, recombinant protein, residues 1-160, protein details: His tag (Ni-NTA) removed by TEV, label: fluorescein; for pKd: 10 mM Tris pH 7, 100 mM NaCl, 0.2 uM fluorescein-labelled RNA
T1 sequence (looked up): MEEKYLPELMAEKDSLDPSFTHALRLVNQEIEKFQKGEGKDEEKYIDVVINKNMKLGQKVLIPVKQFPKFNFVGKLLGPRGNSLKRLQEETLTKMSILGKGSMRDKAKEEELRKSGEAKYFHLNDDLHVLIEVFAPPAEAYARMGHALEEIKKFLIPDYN

| Sequence | pKd (Sam68 QUA1-KH) | binding result (T-STAR QUA1-KH; FP: 10 mM Tris pH 7, 100 mM NaCl, 0.2 uM fluorescein-RNA) | binding result (Sam68 QUA1-KH; FP: 10 mM Tris pH 7, 100 mM NaCl, 0.2 uM fluorescein-RNA, residues 97-260) | pKd (T-STAR QUA1-KH) |
| --- | --- | --- | --- | --- |
| ACAAA | < 4.00 | – | – | – |
| AUAAA | – | binds | binds | – |
| AUAAC | < 4.00 | – | – | – |
| AUACA | < 4.00 | – | – | < 4.00 |
| AUAUA | < 4.00 | – | – | < 4.00 |
| AUCAA | < 4.00 | – | – | < 4.00 |
| AUUAA | < 4.00 | – | – | < 4.00 |
| CCCCC | < 4.00 | – | – | < 4.00 |
| UUUUU | < 4.00 | – | – | < 4.00 |

pKd: −log10 of the molar value. For some of these results: Tags and fusion partners may be left off the protein sequences shown. The exact form of at least one protein or probe is not confirmed. At least one verdict was read from the data and is not stated in words by the source.
